The values that follow come from publication PMC6854080, “Increased Mosquito Midgut Infection by Dengue Virus Recruitment of Plasmin Is Blocked by an Endogenous Kazal-type Inhibitor” (iScience, 2019).

This experiment deals with T1, recombinant AaTI (Aedes aegypti Kazal-type serine protease inhibitor) (Aedes aegypti) (UniProt Q177W0).
T1 sequence: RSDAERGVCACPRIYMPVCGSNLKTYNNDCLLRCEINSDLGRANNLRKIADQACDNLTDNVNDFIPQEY
Put plainly: BLI; Ni-NTA biosensors loaded with rAaTI and immersed in a trypsin solution. A general note: BLI is a label-free optical method that tracks binding on a fibre tip over time.

These are yes or no findings as the source states them, for the method shown. Binding can be weak; no strength is given.

Take trypsin (enzyme): the binding result is “binds”.
